Consider 21 compounds from PubChem BioAssay AID330 (DTP/NCI, 2004).

In the test the test system is P388 leukemia ip, CD2F1 mice, survival T/C. As to the kind of experiment: NCI In Vivo Anticancer Drug Screen. Data for tumor model P388 Leukemia (intraperitoneal) in CD2F1 (CDF1) mice. Particulars: T/C endpoint: median survival time, higher T/C = longer survival.
[1] abbreviates: dose: 200.0 mg/kg/injection, schedule: Q01DX005 (ip), vehicle: saline with Tween-80.
[2] abbreviates: dose: 400.0 mg/kg/injection, schedule: Q04DX002 (ip), vehicle: saline with Tween-80.
[3] abbreviates: dose: 100.0 mg/kg/injection, schedule: Q04DX003 (ip), vehicle: saline with Tween-80.
The mark [4] stands for this setting: dose: 200.0 mg/kg/injection, schedule: Q04DX003 (ip), vehicle: saline with Tween-80.
[5] abbreviates: dose: 400.0 mg/kg/injection, schedule: Q04DX003 (ip), vehicle: saline with Tween-80.
Setting [6] is: dose: 200.0 mg/kg/injection, schedule: Q01DX009 (ip), vehicle: saline.
Setting [7] is: dose: 100.0 mg/kg/injection, schedule: Q01DX005 (ip), vehicle: saline with Tween-80.
Setting [8] is: dose: 100.0 mg/kg/injection, schedule: Q01DX009 (ip), vehicle: saline.
Setting [9] is: dose: 200.0 mg/kg/injection, schedule: Q01DX005 (ip), vehicle: Klucel (hydroxypropylcellulose) (HPC).

The list does not hold the whole screen: it gathers tests that were run many times, whatever their T/C, doses with no T/C, and many T/C values between a quarter and a half above the control. Other doses and runs of a compound stand elsewhere. T/C gives the treated animals as a percentage of the vehicle group. Some doses have a count of surviving animals in place of a T/C: the source files T/C as zero there, which appears to mark a toxic dose or a test without result, not a measured value. Some doses without a T/C left all or most animals alive at the check, yet need not have been tolerated: the source hardly ever lists a survival T/C far under the control, and the zero likely stands for such cases as well. Survivors were counted at the toxicity check, usually on the fifth day, unless a day is given; later deaths do not show. Schedules are NCI's codes, read here as Q, the interval in days (D) or hours (H), X, the number of doses. Some entries were tested several times; their values stand side by side, smallest first. Marks such as (2×) say how often a value occurs here. For survival time, the PubChem record calls one and a half times the control and up active, and a quarter to a half above the control has no call in these data; cut-offs in other NCI protocols can differ.

With `CCc1nc(-c2ccccc2)nc2c1nc(Cc1ccccc1)n2Nc1ccccc1`, the survivor count by setting is: (dose: 200.0 mg/kg/injection, schedule: Q01DX001 (ip), vehicle: Klucel (hydroxypropylcellulose) (HPC)) 4 of 6; (dose: 400.0 mg/kg/injection, schedule: Q01DX001 (ip), vehicle: Klucel (hydroxypropylcellulose) (HPC)) 0 of 6.

As to `NC(=S)N/N=C1\C(=O)NC(=O)C1c1ccccc1` (configuration not stated), the survivor count under setting [1] was 2 of 5.

Turning to `CC(=O)C1=CC(C)(C)OC1=O`, the survivor count under setting [2] is on record as 3 of 6.

Regarding `COC(=O)C1(Cc2ccccc2)CCCC1(C#N)O[Si](C)(C)C` (configuration not stated), the survivor count is given as 3 of 6 under setting [3], 0 of 6 under setting [4] and 0 of 6 under setting [5].

Take `Nc1cc2c(c[n+](CCCCCCC[n+]3cc4c5ccccc5c(N)cc4c4ccccc43)c3ccccc23)c2ccccc12`: the T/C (dose: 3.13 mg/kg/injection, schedule: Q04DX003 (ip), vehicle: other) was 144 % of control. Further, under “dose: 50.0 mg/kg/injection, schedule: Q04DX003 (ip), vehicle: other”, the survivor count is 6 of 6.

With `COc1ccc2c(N=[N+]=[N-])ccnc2c1`, the survivor count (dose: 240.0 mg/kg/injection, schedule: Q01DX005 (ip), vehicle: saline with Tween-80) is 0 of 6.

For the compound `CCOC(=O)CCSc1ccccc1`, the survivor count is 3 of 6 under setting [3], 0 of 6 under setting [4] and 0 of 6 under setting [5].

In the case of `COc1cccc2[se]c(C(=O)O)cc12`, under setting [6], the survivor count is 6 of 6.

Take `CN(C)c1ccc(C(Cl)[O][Sn]([Cl])([c]2ccccc2)[c]2ccccc2)cc1.[CH3][Sn]([CH3])([Cl])[Cl]` (configuration not stated): the T/C was 129 % of control (dose: 1.56 mg/kg/injection, schedule: Q01DX005 (ip), vehicle: saline with Tween-80); 141 % of control (dose: 3.12 mg/kg/injection, schedule: Q01DX005 (ip), vehicle: saline with Tween-80); 148 % of control (dose: 6.25 mg/kg/injection, schedule: Q01DX005 (ip), vehicle: saline with Tween-80, evaluated on day 20); 129 % of control (dose: 6.25 mg/kg/injection, schedule: Q01DX005 (ip), vehicle: saline with Tween-80, evaluated on day 30). For the same compound, the survivor count runs as follows: (dose: 12.5 mg/kg/injection, schedule: Q01DX005 (ip), vehicle: saline with Tween-80) 0 of 6 (2×) and 1 of 6; (dose: 50.0 mg/kg/injection, schedule: Q01DX005 (ip), vehicle: saline with Tween-80) 0 of 6; under setting [7], 0 of 6; under setting [1], 0 of 6.

Consider `COc1cc(C2c3cc4c(cc3OC(C)(OC)C2C)OCO4)cc(OC)c1OC` (configuration not stated), for which the survivor count is reported as 6 of 6 (dose: 30.0 mg/kg/injection, schedule: Q01DX005 (ip), vehicle: saline) and 2 of 6 (dose: 240.0 mg/kg/injection, schedule: Q01DX005 (ip), vehicle: saline). Further, the T/C (dose: 120.0 mg/kg/injection, schedule: Q01DX005 (ip), vehicle: saline) is 146 % of control.

For `C=CC1(C)CCC2C(=CCC3C2(C)CC(O)C(O)C3(C)COC2OC(C(=O)O)C(O)C(O)C2O)C1` (configuration not stated) (tested in a mixture with another compound), the survivor count (dose: 200.0 mg/kg/injection, schedule: Q01DX009 (ip), vehicle: Klucel (hydroxypropylcellulose) (HPC)) is 4 of 6.

For `COc1cccc2c1C(=O)c1nccc3cc4c(c-2c13)OCO4`, the survivor count (dose: 240.0 mg/kg/injection, schedule: Q01DX005 (ip), vehicle: Klucel (hydroxypropylcellulose) (HPC)) is recorded as 6 of 6.

On to `CC1=C(C)C(=O)C(CCl)=[C-]C1=O.[Co].[c-]1[c-][c-][cH-][c-]1`, for which the survivor count is, setting by setting: under setting [7], 2 of 6; under setting [1], 0 of 6.

Take `CS(=O)(=O)OCCCCOS(C)(=O)=O`: the survivor count by setting is: (dose: 7.5 mg/kg/injection, schedule: Q01DX009 (ip), vehicle: saline with Tween-80) 10 of 10; (dose: 30.0 mg/kg/injection, schedule: Q03HX024 (ip), vehicle: saline with Tween-80) 9 of 10; (dose: 60.0 mg/kg/injection, schedule: Q01DX009 (oral), vehicle: saline with Tween-80) 9 of 10; (dose: 60.0 mg/kg/injection, schedule: Q04DX003 (ip), vehicle: saline with Tween-80) 9 of 10; under setting [7], 0 of 6 and 1 of 6; (dose: 120.0 mg/kg/injection, schedule: Q01DX001 (ip), vehicle: saline with Tween-80) 6 of 10. The survivor count reads like this: (dose: 120.0 mg/kg/injection, schedule: Q01DX001 (oral), vehicle: saline with Tween-80) 6 of 10; (dose: 120.0 mg/kg/injection, schedule: Q01DX009 (oral), vehicle: saline with Tween-80) 1 of 10; (dose: 120.0 mg/kg/injection, schedule: Q04DX003 (ip), vehicle: saline with Tween-80) 7 of 10; (dose: 120.0 mg/kg/injection, schedule: Q08DX002 (ip), vehicle: saline with Tween-80) 6 of 10; under setting [1], 0 of 6; (dose: 240.0 mg/kg/injection, schedule: Q01DX001 (ip), vehicle: saline with Tween-80) 6 of 10. For the same compound, the survivor count is, setting by setting: (dose: 240.0 mg/kg/injection, schedule: Q01DX001 (oral), vehicle: saline with Tween-80) 0 of 10; (dose: 240.0 mg/kg/injection, schedule: Q04DX003 (ip), vehicle: saline with Tween-80) 9 of 10; (dose: 480.0 mg/kg/injection, schedule: Q01DX001 (oral), vehicle: saline with Tween-80) 0 of 10.

`COc1cccc(C[n+]2ccccc2C#N)c1`: the survivor count runs as follows: under setting [8], 1 of 6; under setting [6], 0 of 6.

Take `FC(F)(F)COP1OCCS1` (configuration not stated): the survivor count under setting [2] is 2 of 5.

For the compound `CCC1=CC2CN(CCc3c([nH]c4ccccc34)C(C(=O)OC)(c3cc4c(cc3OC)N(C=O)C3C(O)(C(=O)NC)C(OC(C)=O)C5(CC)C=CCN6CCC43C65)C2)C1` (configuration not stated), the T/C reads like this: (dose: 0.25 mg/kg/injection, schedule: Q01DX001 (ip), vehicle: water) 132 and 149 % of control; (dose: 0.5 mg/kg/injection, schedule: Q01DX001 (ip), vehicle: water) 141 and 149 % of control; (dose: 1.0 mg/kg/injection, schedule: Q01DX001 (ip), vehicle: water) 146 % of control. Also, the survivor count is, setting by setting: (dose: 2.0 mg/kg/injection, schedule: Q01DX001 (ip), vehicle: water) 3 of 6; (dose: 4.0 mg/kg/injection, schedule: Q01DX001 (ip), vehicle: water) 3 of 6; (dose: 8.0 mg/kg/injection, schedule: Q01DX001 (ip), vehicle: water) 0 of 6; (dose: 16.0 mg/kg/injection, schedule: Q01DX001 (ip), vehicle: water) 0 of 6; (dose: 32.0 mg/kg/injection, schedule: Q01DX001 (ip), vehicle: water) 0 of 6.

`CC1CC2OC(=O)CC2C(O)C2(C)C(OC(C)(C)C)CCC12` (configuration not stated): under setting [9], the survivor count is 5 of 6.

For the compound `O=c1c2ccccc2[nH]c2c1[nH]c1ccccc12`, under setting [9], the survivor count is on record as 3 of 6.

With `CCOC(=O)C1SC(=S)N(c2ccccc2)C1N` (configuration not stated), the survivor count is 6 of 6 under setting [8] and 6 of 6 under setting [6].

`Clc1ccc(OCCC(Cn2ccnc2)c2ccc(Cl)cc2Cl)c(Cl)c1` (configuration not stated): the survivor count was 2 of 6 (dose: 50.0 mg/kg/injection, schedule: Q01DX009 (ip), vehicle: saline with Tween-80); 1 of 6 and 3 of 6 (dose: 100.0 mg/kg/injection, schedule: Q01DX009 (ip), vehicle: saline with Tween-80); 0 of 6 (dose: 200.0 mg/kg/injection, schedule: Q01DX009 (ip), vehicle: saline with Tween-80).
